Primary screen of a compound library

The chains behind the UniProt entries cited, without tags or fusion partners.
UniProt I6X8D2, whole entry: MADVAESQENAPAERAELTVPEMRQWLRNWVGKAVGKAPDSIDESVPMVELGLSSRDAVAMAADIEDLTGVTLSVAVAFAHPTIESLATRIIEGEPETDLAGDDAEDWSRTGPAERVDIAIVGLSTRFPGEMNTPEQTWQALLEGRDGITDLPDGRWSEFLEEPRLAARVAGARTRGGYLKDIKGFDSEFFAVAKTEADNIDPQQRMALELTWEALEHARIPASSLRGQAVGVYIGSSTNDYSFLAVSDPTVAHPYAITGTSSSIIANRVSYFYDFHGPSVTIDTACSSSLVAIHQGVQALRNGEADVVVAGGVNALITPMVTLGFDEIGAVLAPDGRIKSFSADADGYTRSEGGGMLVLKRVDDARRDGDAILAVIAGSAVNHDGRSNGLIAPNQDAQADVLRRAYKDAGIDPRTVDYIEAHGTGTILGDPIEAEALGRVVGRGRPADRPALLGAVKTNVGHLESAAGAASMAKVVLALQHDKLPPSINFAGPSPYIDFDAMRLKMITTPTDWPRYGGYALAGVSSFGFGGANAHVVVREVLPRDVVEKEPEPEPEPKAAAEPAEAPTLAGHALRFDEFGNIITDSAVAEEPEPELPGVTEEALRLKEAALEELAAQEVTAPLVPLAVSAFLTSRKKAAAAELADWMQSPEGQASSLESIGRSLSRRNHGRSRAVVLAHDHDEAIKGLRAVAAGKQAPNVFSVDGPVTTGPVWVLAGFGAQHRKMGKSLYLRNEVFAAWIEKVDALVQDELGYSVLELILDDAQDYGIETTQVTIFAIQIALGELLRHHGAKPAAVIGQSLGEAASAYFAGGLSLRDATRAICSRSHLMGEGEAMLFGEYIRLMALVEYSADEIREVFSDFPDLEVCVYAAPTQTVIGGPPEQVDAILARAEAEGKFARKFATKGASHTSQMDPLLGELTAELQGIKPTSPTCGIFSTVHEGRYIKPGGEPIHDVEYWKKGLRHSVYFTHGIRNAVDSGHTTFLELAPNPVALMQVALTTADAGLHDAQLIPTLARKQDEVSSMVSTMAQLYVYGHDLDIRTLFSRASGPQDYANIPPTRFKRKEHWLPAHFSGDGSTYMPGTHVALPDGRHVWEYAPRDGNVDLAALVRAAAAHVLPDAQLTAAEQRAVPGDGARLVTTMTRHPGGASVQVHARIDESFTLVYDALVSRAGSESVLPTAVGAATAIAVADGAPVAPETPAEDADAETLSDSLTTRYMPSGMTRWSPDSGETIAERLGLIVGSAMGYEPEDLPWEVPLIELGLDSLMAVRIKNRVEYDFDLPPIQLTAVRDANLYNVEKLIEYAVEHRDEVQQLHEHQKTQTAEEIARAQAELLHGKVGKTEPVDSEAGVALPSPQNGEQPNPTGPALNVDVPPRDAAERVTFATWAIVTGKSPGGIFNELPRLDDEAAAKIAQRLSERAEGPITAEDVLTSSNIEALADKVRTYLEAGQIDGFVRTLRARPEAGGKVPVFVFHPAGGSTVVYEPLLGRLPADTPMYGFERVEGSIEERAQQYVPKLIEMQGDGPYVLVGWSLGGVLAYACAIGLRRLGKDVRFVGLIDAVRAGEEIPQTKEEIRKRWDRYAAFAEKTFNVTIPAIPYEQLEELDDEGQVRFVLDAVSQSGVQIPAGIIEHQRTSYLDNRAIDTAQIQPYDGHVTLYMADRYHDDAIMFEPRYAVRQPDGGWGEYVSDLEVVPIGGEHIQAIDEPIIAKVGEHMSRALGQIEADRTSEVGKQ

The filed quantity is “Percent Effect” (%). How 0% and 100% were set is not recorded. Most values in the screen are low, and negative values occur. Compounds were drawn at random from those tested, without regard to their results.

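Enzyme assay of the thioesterase domain of polyketide synthase 13; the read-out is not stated. Target: Polyketide synthase Pks13, Mycobacterium tuberculosis (UniProt I6X8D2). Concentration: 30 µM. Higher reads as stronger inhibition (inferred from which compounds were picked for retests). Of about 67,000 compounds tested this way, about 300 (0.46%) reached 50% or more in at least one test.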

{"compound": "O=C(CN1CCOCC1)N1CCN(C2CCc3ccc(F)cc32)CC1", "stereo": "stereo not drawn", "Percent Effect": -14.06}
{"compound": "COCCN1C[C@H]2CCN(c3ncccn3)CC[C@H]2S1(=O)=O", "Percent Effect": -18.56}
{"compound": "CN1CCCC(c2cccc(CCC(=O)NCC3(C)COC3)n2)C1", "stereo": "stereo not drawn", "Percent Effect": 0.2207}
{"compound": "CCn1c(CN2CCCC2)nnc1C1CCN(Cc2ccncc2)CC1", "Percent Effect": -19.68}
{"compound": "CCC[C@H]1CN(Cc2ccc3c(c2)OCCO3)C[C@@H]1NC(=O)COC", "Percent Effect": -0.07133}
{"compound": "Cc1ccc(OCC2CCCN(C(=O)CCn3ccccc3=O)C2)cc1", "stereo": "stereo not drawn", "Percent Effect": 0.3295}
{"compound": "OCCCNc1nc(O)c2c(n1)-c1ccccc1CC21CCCCC1", "Percent Effect": 13.78}
{"compound": "O=C(c1ccccn1)N1C[C@@H]2CC[C@H](C1)N(C(=O)c1ccsc1)C2", "Percent Effect": -36.71}
{"compound": "COCc1nc(C(=O)N2CCN(c3nccc(OC)n3)CC2)cs1", "Percent Effect": -1.148}
{"compound": "Cc1nc(C)n(CC2CCCN(CC(=O)Nc3nnc(C)s3)C2)n1", "stereo": "stereo not drawn", "Percent Effect": -12.59}
{"compound": "O=C(Cc1cccs1)NC1(C(=O)NCC2CC2)CCCC1", "Percent Effect": -4.467}
{"compound": "Cn1cccc1C(=O)N1CCN(Cc2ccncc2)c2ncccc2C1", "Percent Effect": -11.35}
{"compound": "Cc1ccc2c(n1)N(Cc1cccnc1)CCN(C1CCOCC1)C2", "Percent Effect": -3.29}
{"compound": "CN(C)c1ncc(CNS(=O)(=O)c2cc(F)ccc2Cl)n1C", "Percent Effect": 5.547}
{"compound": "Cc1cc(NC(=O)Cn2ccc(=O)c3ccccc32)[nH]n1", "Percent Effect": -10.94}
{"compound": "CC(C)NC[C@H]1COCc2nc3cccnc3n21", "Percent Effect": -34.22}
{"compound": "COc1cc(CNC(=O)Nc2nnc(C(C)C)s2)ccn1", "Percent Effect": -16.48}
{"compound": "COc1ccc(CNC(c2cccc(F)c2)c2cnn(C)c2)cc1", "stereo": "stereo not drawn", "Percent Effect": -32.96}
{"compound": "Clc1ccccc1C1(c2ccnc(-c3ccncc3)n2)CCNCC1", "Percent Effect": -7.385}
{"compound": "CC1CCN(c2ncc(C#N)c(N)n2)CC1", "Percent Effect": 16.27}
{"compound": "Cc1nc(CNCC2CCCN2c2cccnn2)cs1", "stereo": "stereo not drawn", "Percent Effect": -5.756}
{"compound": "CN1CCN(C2CCN(CC(O)c3ccccc3)CC2)C1=O", "stereo": "stereo not drawn", "Percent Effect": -10.98}
{"compound": "c1cc(-c2noc([C@@H]3CCCN3C3CCC3)n2)cc(N2CCCC2)n1", "Percent Effect": 23.46}
{"compound": "COc1ccc(-c2n[nH]cc2CN2CCSCC2)c(OC)c1", "Percent Effect": -41.66}
{"compound": "CC(NC(=O)Nc1nccs1)c1cccnc1", "stereo": "stereo not drawn", "Percent Effect": 8.038}
{"compound": "Cc1ccc(CN2CC[C@H]3[C@H]2CC(=O)N3c2cccnc2)o1", "Percent Effect": 23.57}
{"compound": "C[C@H]1C[C@@H]2CCN(Cc3ccccn3)C[C@H]2O1", "Percent Effect": -2.304}
{"compound": "COc1ccc2c(c1)OCC(CNC(=O)NC(C)(C)C)C2", "stereo": "stereo not drawn", "Percent Effect": -40.51}
{"compound": "Cc1ccc(CN(C)C(=O)CNC(=O)N2CCc3ccccc3C2)o1", "Percent Effect": -2.414}
{"compound": "Cc1nc(N2CCOCC2)nc(C)c1NC(=O)c1ccco1", "Percent Effect": -23.38}
{"compound": "COc1cc(CN(C)C(C)c2ccccn2)cc2c1OCO2", "stereo": "stereo not drawn", "Percent Effect": 0.4219}
{"compound": "CCOCCC(=O)N(C)Cc1noc(C(C)C)n1", "Percent Effect": 19.87}
{"compound": "N#Cc1cccc(C(=O)N2CC(c3nc(-c4ccc[nH]c4=O)no3)C2)c1", "Percent Effect": -7.508}
{"compound": "CC(=O)N1Cc2ccccc2C[C@H]1C(=O)N(C)CCc1ccccn1", "Percent Effect": -22.03}
{"compound": "Cc1nc(O)c2nnn(C[C@H]3CCCN3C(=O)c3ccccc3C)c2n1", "Percent Effect": -0.492}
{"compound": "CC(c1cccnc1)N1CCN(CCCC#N)CC1", "stereo": "stereo not drawn", "Percent Effect": -10.12}
{"compound": "Cc1cnc(C)c(N2CCC(C(=O)O)(n3ccc(C(C)(C)C)n3)CC2)n1", "Percent Effect": 2.868}
{"compound": "COc1ccc(-c2nc(C#N)c(N(C)C)o2)cc1S(=O)(=O)N1CCCC1", "Percent Effect": -15.05}
{"compound": "COCCN1CCC(c2nc3ccccc3[nH]2)CC1", "Percent Effect": -21.16}
{"compound": "CC(C)(C)N1CC(C(=O)N2CCN(CCn3cccc3)CC2)CC1=O", "stereo": "stereo not drawn", "Percent Effect": -8.076}
{"compound": "CNC(=O)CS(=O)(=O)Cc1cc(Cl)c2c(c1)OCCCO2", "Percent Effect": -46.97}
{"compound": "Cc1nn(-c2ccccc2)c2c1C(c1ccc(C(=O)O)cc1)CC(=O)N2", "stereo": "stereo not drawn", "Percent Effect": -24.26}
{"compound": "Fc1cccc2c1CCC2NCc1cnc(N2CCOCC2)nc1", "stereo": "stereo not drawn", "Percent Effect": -26.92}
{"compound": "COCC1CC2(CCN(C(=O)c3cc(C)oc3C)CC2)CN1C(C)C", "stereo": "stereo not drawn", "Percent Effect": -1.566}
{"compound": "COc1cccc2c1OCC(NC(=O)NC1CCN(C3CC3)CC1)C2", "stereo": "stereo not drawn", "Percent Effect": -41}
{"compound": "O=C(CCc1ccc(-c2ccccc2)[nH]1)N1CCCC(n2ccnc2)C1", "stereo": "stereo not drawn", "Percent Effect": -20.63}
{"compound": "CC(NC(=O)CCn1cccn1)c1ccc2c(c1)OCCO2", "stereo": "stereo not drawn", "Percent Effect": -21.34}
{"compound": "CC(C)c1cc(CN(C)C(=O)CN2CCCCC2=O)no1", "Percent Effect": -5.506}

The last 4 entries again:

compound,Percent Effect
COc1cccc2c1OCC(NC(=O)NC1CCN(C3CC3)CC1)C2 (stereo not drawn),-41%
O=C(CCc1ccc(-c2ccccc2)[nH]1)N1CCCC(n2ccnc2)C1 (stereo not drawn),-20.63%
CC(NC(=O)CCn1cccn1)c1ccc2c(c1)OCCO2 (stereo not drawn),-21.34%
CC(C)c1cc(CN(C)C(=O)CN2CCCCC2=O)no1,-5.506%

Source: ChEMBL document CHEMBL3988442, “University of Dundee, Small-Polar-MMV Screening Library” (2021).